# Experimental data published in the supplement of paper PMC10735217.
# Structures can show the parent of a compound that is named as a salt. This is one part of the list. This data set is noisy: repeats of one test often differ as much as different tests do.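 Human kidney-derived cells stably carry a construct in which eight TEAD-binding elements drive luciferase, measured by luminescence in a drug-repurposing library screen. A hit is any compound whose signal exceeds the plate mean by more than five robust Z scores.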
# Tested on: HEK293A TEAD-LUC reporter
# Assay: TEAD-luciferase reporter activity (YAP activation), robust Z score vs plate; higher = stronger YAP/TEAD activation
# Details: 24 h
Compound,TEAD-luciferase reporter activity (compound concentration: 200 nM),TEAD-luciferase reporter activity (compound concentration: 2 uM),TEAD-luciferase reporter activity (compound concentration: 10 uM)
CCCCN1C(=O)C(=O)N(CCCC)C1=S,inactive: 2.04,inactive: -2.09,inactive: 0.332
O=C1N=C(O)NC1(c1ccccc1)c1cccs1 (configuration not stated),inactive: -0.358,inactive: -0.73,inactive: -0.399
CC(C)S(=O)(=O)NC[C@H](C)c1ccc(NC(=O)c2cc(F)cc(F)c2)cc1,inactive: -1.5,inactive: -1.66,active: 7.35
NC(=O)[C@@H]1CCCN1C(=O)[C@H](Cc1c[nH]cn1)NC(=O)[C@@H]1CCC(=O)N1 [protirelin],inactive: 1.8,inactive: -0.495,inactive: -1.33
COc1cc2c(cc1O)C(C1(c3ccccc3Cl)CC1)N(C)CC2 (configuration not stated),inactive: 1.59,inactive: -0.88,inactive: 2.33
CC1(C)C(=O)c2ccc(C#N)cc2[C@@H](Oc2ccc(=O)[nH]n2)[C@@H]1O,inactive: 1.35,inactive: 0.211,inactive: -0.487
Nc1ncnc2c1ncn2[C@H]1C=C[C@@H](CO)O1 [CF-1001 metabolite],inactive: -0.815,inactive: 0.545,inactive: -0.52
C[C@H](N)C(=O)N[C@@]1(C(=O)O)CC[C@H]2[C@H](C(=O)O)[C@H]21,inactive: -0.0805,inactive: -0.11,inactive: -0.645
CC1(C)Oc2ccc(C#N)cc2C2(c3cccc[n+]3[O-])OC12 (configuration not stated),inactive: -0.847,inactive: 0.656,inactive: -0.569
CS(=O)(=O)N1CCc2c(-c3cnc(N)nc3)nc(N3CCOCC3)nc21,inactive: -0.913,inactive: -1.24,inactive: 1.21
CCC(CC)n1ncn(-c2ccc(N3CCN(c4ccc(OC[C@@H]5CO[C@@](Cn6cncn6)(c6ccc(F)cc6F)C5)cc4)CC3)cc2)c1=O,inactive: 0.105,inactive: -0.514,inactive: -1.56
O=C1c2cccc3c2[C@H](CCC3)CN1[C@@H]1CN2CCC1CC2 [palonosetron hydrochloride],,inactive: -1.28,
O=C1c2cccc3c2[C@H](CCC3)CN1[C@@H]1CN2CCC1CC2 [Palonosetron hydrochloride],inactive: 1.36,,inactive: 0.837
CCCC(Oc1ccc(C(=O)c2cc(CCCC(=O)O)n3ccccc23)cc1)c1ccc(CC(C)C)cc1 (configuration not stated),inactive: 0.701,inactive: 0.354,inactive: 1.49
CCNC(=S)NS(=O)(=O)c1cnccc1NC1CCCCCCC1,inactive: -1.07,inactive: 0.217,inactive: -0.715
CC(C)CCN1CCC2(CC1)NC(=O)c1ccccc1O2,active: 5.29,,inactive: 1.96
CCC(C)SSc1ncc[nH]1 (configuration not stated),inactive: 1.08,inactive: 2.8,inactive: 0.753
C[N+](C)([O-])CCCN1c2ccccc2CCc2ccccc21,inactive: -1.19,inactive: 0.566,inactive: 0.211
COc1ccc([C@@H]2CC(=O)c3c(O)cc(OC4OC(COC5OC(C)C(O)C(O)C5O)C(OC5OC(CO)C(O)C(O)C5O)C(O)C4O)cc3O2)cc1O (stereo partly drawn) [alpha-Glucosylhesperidin],inactive: -0.868,inactive: -0.58,inactive: -0.288
CCCCCCOc1ccc(/C=N/c2ccc(CCCCCC)cc2)c(O)c1,inactive: -0.642,inactive: -0.474,inactive: 1.55

# Individual results from the entries so far.
# Entry of C[N+](C)([O-])CCCN1c2ccccc2CCc2ccccc21 under TEAD-luciferase reporter activity (compound concentration: 10 uM): inactive: 0.211
# Entry of Nc1ncnc2c1ncn2[C@H]1C=C[C@@H](CO)O1 [CF-1001 metabolite] under TEAD-luciferase reporter activity (compound concentration: 2 uM): inactive: 0.545
# Entry of CS(=O)(=O)N1CCc2c(-c3cnc(N)nc3)nc(N3CCOCC3)nc21 under TEAD-luciferase reporter activity (compound concentration: 2 uM): inactive: -1.24
# Entry of CCC(CC)n1ncn(-c2ccc(N3CCN(c4ccc(OC[C@@H]5CO[C@@](Cn6cncn6)(c6ccc(F)cc6F)C5)cc4)CC3)cc2)c1=O under TEAD-luciferase reporter activity (compound concentration: 200 nM): inactive: 0.105
# Entry of CCNC(=S)NS(=O)(=O)c1cnccc1NC1CCCCCCC1 under TEAD-luciferase reporter activity (compound concentration: 10 uM): inactive: -0.715

# The list continues:

Compound,TEAD-luciferase reporter activity (compound concentration: 200 nM),TEAD-luciferase reporter activity (compound concentration: 2 uM),TEAD-luciferase reporter activity (compound concentration: 10 uM)
N#C[C@@H]1CCCN1C(=O)CNC12CC3CC(CC(O)(C3)C1)C2 [Vildagliptin],inactive: 0.239,inactive: -2.17,inactive: 0.33
N[C@H]1CC[C@H](N[C@@H]2C[C@H]2c2ccccc2)CC1,inactive: -0.447,inactive: 0.333,inactive: 3.23
CCCCc1nc(N)c2nc(-n3nccn3)n(C)c2n1,inactive: 0.0654,inactive: -1.5,inactive: -0.726
O=C1CSC2(CCN(CCCN3c4ccccc4Sc4ccc(Cl)cc43)CC2)N1,inactive: 1.11,inactive: -0.794,inactive: 0.259
Cc1cc(C)c2c3ccccc3n(Cc3cccc(C(C(=O)NC(CO)c4ccccc4)C4CCCC4)c3)c2n1 (configuration not stated),inactive: -0.9,inactive: -0.1,active: 5.91
CCCCC/C=C\C/C=C\C/C=C\C/C=C\CCCC(=O)O [Arachidonic acid],inactive: 0.306,inactive: 1.28,inactive: -0.704
O=c1n(CCCN2CCN(c3cccc(Cl)c3)CC2)nc2ccccn12 [trazodone],,inactive: 3.74,
O=c1n(CCCN2CCN(c3cccc(Cl)c3)CC2)nc2ccccn12,inactive: -0.716,,inactive: 0.0583
"NC1=NCC2c3ccccc3Cc3ccccc3N12 (configuration not stated) [epinastine, BI]",,inactive: 1.54,
"NC1=NCC2c3ccccc3Cc3ccccc3N12 (configuration not stated) [epinastine, BI, nasal]",inactive: 1.3,,inactive: 0.329
O=C(O)Cc1sc2nc3ccccc3n2c1-c1ccc(Cl)cc1 [Tilomisole],inactive: -0.0168,inactive: -1.53,inactive: 0.0252
CC(=O)N1CCN(C(=O)c2c[nH]c3ncccc23)CC1,inactive: 1.77,,inactive: 2.46
CN(C)[C@@H](C(=O)N1CCC[C@H]1c1ncc(-c2ccc(-c3ccc(-c4cnc([C@@H]5CCCN5C(=O)[C@@H](c5ccccc5)N(C)C)[nH]4)cn3)cc2)[nH]1)c1ccccc1,inactive: -0.396,inactive: -0.138,inactive: 0.142
O=C(O)C1CSCN1 (configuration not stated) [Timonacic],inactive: 0.653,inactive: -0.552,inactive: -1.26
NC(=O)N1c2ccccc2C2OC2c2ccccc21 (configuration not stated),inactive: -1.74,inactive: -0.972,inactive: -0.404
C=CC(C)NC(=S)NNC(=S)NC(C)C=C (configuration not stated),inactive: -0.949,inactive: 1.14,inactive: -3.49
CNC(=O)c1ccc(Oc2ccc3c(c2)CCN(C2CCC2)CC3)nc1,inactive: 0.692,inactive: 0.903,inactive: -0.0573
CC(C)NCC(O)c1ccc(O)c(NS(C)(=O)=O)c1 (configuration not stated),inactive: -0.885,inactive: -1.83,inactive: 1.41
c1ccc2c(c1)OCC(=C1NCCN1)O2 [idazoxan],inactive: -1.05,inactive: 4.89,inactive: -2.11
CCOP(=O)(CCCCCCOc1ccc(OC)cc1F)OCC,inactive: -0.687,inactive: -0.204,inactive: 0.391

Compound,TEAD-luciferase reporter activity (compound concentration: 200 nM),TEAD-luciferase reporter activity (compound concentration: 2 uM),TEAD-luciferase reporter activity (compound concentration: 10 uM)
C[C@H](O)[C@@H](c1ccc2c(c1)OCO2)N1CCOCC1 [Filenadol],inactive: -1.52,inactive: -1.9,inactive: -1.84
CCCc1ccc(NS(=O)(=O)Cc2ccccc2)c(=O)n1CC(=O)Nc1ccc(N)nc1C,inactive: -1.23,inactive: -1.37,inactive: 0.0175
CC(O)(c1ccc(Cl)cc1)C(C)(O)c1ccc(Cl)cc1 (configuration not stated),inactive: -0.957,inactive: -0.31,inactive: 2.52
CC(=O)N1CCC(NC(=O)NC23CC4CC(CC(C4)C2)C3)CC1,inactive: 0.473,inactive: 0.432,inactive: 1.02
CC1CC2(NC(=O)NC2=O)c2cc(F)ccc2O1 (configuration not stated) [Methosorbinil],inactive: 0.136,inactive: -0.372,inactive: -0.958
CCCC(=O)OCOC(=O)C1=C(C)NC(C)=C(C(=O)OC)C1c1cccc(Cl)c1Cl (configuration not stated) [Clevidipine],inactive: -0.492,inactive: 2.25,inactive: 3.16
COC(=O)C(C)NC(=O)Cc1c(C)n(C(=O)c2ccc(Cl)cc2)c2ccc(OC)cc12 (configuration not stated),inactive: 1.08,inactive: 0.211,inactive: 2.45
O=C(Cc1ccc(F)cc1)Nc1ccc2cnn(CCN3CCCC3)c2c1,inactive: -0.85,inactive: -1.44,inactive: -1.74
CCCCCCCCOc1c(O)c2ccc(NC(=O)/C=C/c3cc(OC)c(O)c(OC)c3)cc2n(C)c1=O,inactive: -0.462,inactive: 0.835,inactive: -0.682
O=C(Cc1ccccc1Nc1c(Cl)cccc1Cl)OCCCCO[N+](=O)[O-],inactive: -2.16,inactive: 0.247,inactive: 2.02
O=C1c2ccccc2C(=O)c2c(NCCNCCO)ccc(NCCNCCO)c21 [Ametantrone],,inactive: 3.25,
O=C1c2ccccc2C(=O)c2c(NCCNCCO)ccc(NCCNCCO)c21,inactive: -0.898,,inactive: 0.857
COc1ccc(Cc2cnc(N)nc2N)cc1OC,inactive: -0.906,,inactive: -1.88
COc1ccc(Cc2cnc(N)nc2N)cc1OC [Diaveridine],,inactive: -0.378,
CO[C@@H]1COCC[C@@H]1N[C@@H]1CC[C@@](C(=O)N2CCc3ncc(C(F)(F)F)cc3C2)(C(C)C)C1,inactive: -0.772,inactive: -0.83,inactive: 0.174
COc1ccc(-c2nc(C(=O)N3CCN(C)CC3)sc2-c2ccc(OC)cc2)cc1,inactive: -1.01,inactive: 0.0454,inactive: -0.152
CCCCC1(CCCC)CN(c2ccccc2)c2cc(SC)c(OCC(=O)N[C@@H](C(=O)N[C@@H](CC)C(=O)O)c3ccc(O)cc3)cc2S(=O)(=O)N1,inactive: -0.609,inactive: -0.155,inactive: 0.0233
CC(=O)OCC(=O)[C@@]12OC(C)(C)O[C@@H]1C[C@H]1[C@@H]3C[C@H](F)C4=CC(=O)C=C[C@]4(C)[C@@]3(F)[C@@H](O)C[C@@]12C [fluocinonide],inactive: -0.346,inactive: -0.68,inactive: 0.461
